# Record: PubChem BioAssay AID686938 (Drosophila RNAi Screening Center, 2013)
# Purpose: 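Looking for CRAC channel components and the factors controlling them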 (primary screen)
# Cells: Drosophila S2R+ cells
# Knock-down reagent: long dsRNA against Drosophila genes, about 0.25 µg dsRNA per well, roughly 10,000 cells
# Time to read-out: 5 days of knock-down before the calcium assay
# Conditions: thapsigargin (SERCA pump blocker) to empty calcium stores; entry signal taken 4 min after adding it
# Measurement: 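Duplicate raw fluo-4 intensities per well from a plate reader, at rest and four minutes after thapsigargin emptied calcium stores; entry-to-rest ratio filled for only some wells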
# Scale: calcium entry signal: higher = stronger calcium signal after store depletion; resting calcium signal: higher = higher resting calcium signal
# Active means: 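Hit if the duplicate-averaged plate z-score for entry over resting signal is under −3; wells with weak total dye signal (Fmax z < −2) or more than 5 off-targets removed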
# Calls: active = strongly reduced calcium entry; inactive = no strong reduction
# The screen tested about 23,000 reagents; below is an unselected part of those with a known target gene and a result. Of all reagents, 75 (0.33%) are marked active. 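Raw plate signals without normalisation; calls rest on plate z-scores that were not deposited; ratio present for only 364 wells.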 Unmarked entries are inactive. No sequences are given here. The record does not give: the dose of the treatment.
gene,amplicon,"calcium entry signal, replicate 1 (fluorescence units)","calcium entry signal, replicate 2 (fluorescence units)","resting calcium signal, replicate 1 (fluorescence units)","resting calcium signal, replicate 2 (fluorescence units)"
Pif1,DRSC00582,4.15e7,,2.46e7,
CG5342,DRSC15776,4.45e7,4.28e7,2.08e7,2.03e7
Lcp1Psi,DRSC05105,2.64e7,4.29e7,1.47e7,4.07e7
Sp7,DRSC15461,3.93e7,2.87e7,1.96e7,1.54e7
magu,DRSC06832,3.99e7,3.38e7,1.68e7,1.62e7
Syngr,DRSC06003,2.60e7,2.57e7,1.49e7,1.48e7
Rsf1,DRSC03423,3.36e7,4.94e7,1.92e7,2.73e7
Rsf1,DRSC21953,3.14e7,4.73e7,1.60e7,2.58e7
Sec71,DRSC01893,4.13e7,2.66e7,1.83e7,1.33e7
CG11309,DRSC11650,3.49e7,3.70e7,1.59e7,2.19e7
CG32170,DRSC09452,3.33e7,4.93e7,1.68e7,2.00e7
polyph,DRSC06254,3.88e7,4.18e7,1.96e7,1.55e7
mei-W68,DRSC07649,3.90e7,4.45e7,1.59e7,1.87e7
CG16749,DRSC15146,2.14e7,2.20e7,1.09e7,1.14e7
CG34384,DRSC12642,2.09e7,5.04e7,1.02e7,2.56e7
CG34384,DRSC12644,2.12e7,4.15e7,1.08e7,1.69e7
CG34384,DRSC14855,3.59e7,2.85e7,1.75e7,1.44e7
CG34384,DRSC15444,4.20e7,3.06e7,2.05e7,1.53e7
CG34384,DRSC16575,4.38e7,3.04e7,2.19e7,1.46e7
Trf5,DRSC00412,3.51e7,3.94e7,1.56e7,1.54e7
RpL29,DRSC04650,2.91e7,4.49e7,1.51e7,1.92e7
TpnC4,DRSC04856,3.86e7,3.69e7,1.73e7,1.64e7
Nop17l,DRSC06556,3.21e7,2.73e7,1.38e7,1.24e7
Dph1,DRSC09851,4.00e7,2.48e7,2.97e7,1.22e7
Tango10,DRSC19807,3.06e7,3.33e7,1.45e7,1.63e7
CG11600,DRSC14332,3.21e7,3.58e7,1.64e7,1.78e7
Ak1,DRSC10248,2.73e7,3.17e7,1.47e7,1.60e7
stet,DRSC08246,3.41e7,4.30e7,1.87e7,2.15e7
stet,DRSC08283,3.39e7,4.26e7,1.88e7,2.13e7
Tap42,DRSC02967,3.32e7,2.27e7,1.67e7,1.21e7
RpS9,DRSC11273,1.67e7,1.78e7,1.60e7,9.82e6
CG4360,DRSC15566,3.73e7,4.50e7,5.32e7,1.87e7
tex,DRSC16517,4.10e7,3.89e7,1.99e7,1.90e7
CG14070,DRSC02373,3.56e7,4.01e7,1.54e7,1.76e7
Muc91C,DRSC16297,4.40e7,3.73e7,4.81e7,1.75e7
Muc91C,DRSC21696,4.18e7,3.35e7,2.13e7,1.54e7
CG31454,DRSC14365,4.08e7,3.34e7,2.22e7,1.68e7
CG31454,DRSC22801,3.30e7,4.47e7,1.63e7,1.98e7
Eig71Eh,DRSC11155,5.30e7,6.56e7,2.34e7,2.71e7
Utx,DRSC02872,4.09e7,4.77e7,1.82e7,1.86e7

Part of the list above, set out differently:
| gene | amplicon | calcium entry signal, replicate 1 (fluorescence units) | calcium entry signal, replicate 2 (fluorescence units) | resting calcium signal, replicate 1 (fluorescence units) | resting calcium signal, replicate 2 (fluorescence units) |
| --- | --- | --- | --- | --- | --- |
| CG16749 | DRSC15146 | 2.14e7 | 2.20e7 | 1.09e7 | 1.14e7 |
| CG34384 | DRSC12642 | 2.09e7 | 5.04e7 | 1.02e7 | 2.56e7 |
| CG34384 | DRSC12644 | 2.12e7 | 4.15e7 | 1.08e7 | 1.69e7 |
| CG34384 | DRSC14855 | 3.59e7 | 2.85e7 | 1.75e7 | 1.44e7 |
| CG34384 | DRSC15444 | 4.20e7 | 3.06e7 | 2.05e7 | 1.53e7 |
| CG34384 | DRSC16575 | 4.38e7 | 3.04e7 | 2.19e7 | 1.46e7 |
